Results are given in words; binding and its absence hold for the method and conditions named. For some of these results: In cells and extracts the contact can be indirect. Some results given as binding are weak or reduced against the parent protein; the word gives no strength. For some of these results: Tags and fused reporters may be left off the sequences shown. Each block holds one binder with its values, some of them ahead of it.
What was measured:
[1] = biological target: T1, EIN2-CEND, yeast two-hybrid construct (EIN2:GAL4 DNA-binding domain fusion) (Arabidopsis) (UniProt P04386+Q9S814); test: yeast two-hybrid, growth on selective plates
[2] = biological target: T2, EIN2-CEND5, yeast two-hybrid construct (Arabidopsis) (UniProt P04386+Q9S814); test: yeast two-hybrid
[3] = biological target: T2, EIN2-CEND5, yeast two-hybrid construct (Arabidopsis); test: yeast two-hybrid (the sentence runs on into paragraph 134, where 'ETP2' stands)
[4] = biological target: T1, EIN2-CEND, yeast two-hybrid construct (EIN2:GAL4 DNA-binding domain fusion) (Arabidopsis); test: directed yeast two-hybrid
[5] = biological target: T3, GST-EIN2-CEND fusion protein (Arabidopsis) (UniProt Q9S814); test: GST pull-down of in vitro translated HA-tagged protein, anti-HA western blot
T3 sequence (looked up): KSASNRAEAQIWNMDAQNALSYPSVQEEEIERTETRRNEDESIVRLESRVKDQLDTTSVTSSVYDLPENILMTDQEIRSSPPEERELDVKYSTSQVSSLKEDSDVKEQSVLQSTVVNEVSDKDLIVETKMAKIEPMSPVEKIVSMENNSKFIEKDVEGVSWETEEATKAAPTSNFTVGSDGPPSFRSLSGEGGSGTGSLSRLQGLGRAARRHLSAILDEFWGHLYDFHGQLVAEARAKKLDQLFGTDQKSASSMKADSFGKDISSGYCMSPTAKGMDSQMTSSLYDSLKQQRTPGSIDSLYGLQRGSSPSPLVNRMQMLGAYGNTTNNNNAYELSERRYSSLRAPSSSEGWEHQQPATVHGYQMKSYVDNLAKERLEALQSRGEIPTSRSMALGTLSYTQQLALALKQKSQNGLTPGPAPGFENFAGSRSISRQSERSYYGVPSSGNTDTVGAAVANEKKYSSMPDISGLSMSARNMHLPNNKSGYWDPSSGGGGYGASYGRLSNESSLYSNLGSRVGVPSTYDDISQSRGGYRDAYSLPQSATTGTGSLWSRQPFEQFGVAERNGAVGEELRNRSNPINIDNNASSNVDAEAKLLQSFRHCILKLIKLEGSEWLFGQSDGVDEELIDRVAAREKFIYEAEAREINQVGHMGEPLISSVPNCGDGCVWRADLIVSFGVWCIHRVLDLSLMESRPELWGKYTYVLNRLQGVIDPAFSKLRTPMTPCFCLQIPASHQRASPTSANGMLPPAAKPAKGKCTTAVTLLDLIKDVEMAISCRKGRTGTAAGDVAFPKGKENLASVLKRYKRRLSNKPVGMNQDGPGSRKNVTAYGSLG

By UniProt entry, the sequences of proteins in these tests, tags left out. Where a name states a change or a piece, a line headed by the entry shows the natural chain unless it says otherwise.
UniProt P04386: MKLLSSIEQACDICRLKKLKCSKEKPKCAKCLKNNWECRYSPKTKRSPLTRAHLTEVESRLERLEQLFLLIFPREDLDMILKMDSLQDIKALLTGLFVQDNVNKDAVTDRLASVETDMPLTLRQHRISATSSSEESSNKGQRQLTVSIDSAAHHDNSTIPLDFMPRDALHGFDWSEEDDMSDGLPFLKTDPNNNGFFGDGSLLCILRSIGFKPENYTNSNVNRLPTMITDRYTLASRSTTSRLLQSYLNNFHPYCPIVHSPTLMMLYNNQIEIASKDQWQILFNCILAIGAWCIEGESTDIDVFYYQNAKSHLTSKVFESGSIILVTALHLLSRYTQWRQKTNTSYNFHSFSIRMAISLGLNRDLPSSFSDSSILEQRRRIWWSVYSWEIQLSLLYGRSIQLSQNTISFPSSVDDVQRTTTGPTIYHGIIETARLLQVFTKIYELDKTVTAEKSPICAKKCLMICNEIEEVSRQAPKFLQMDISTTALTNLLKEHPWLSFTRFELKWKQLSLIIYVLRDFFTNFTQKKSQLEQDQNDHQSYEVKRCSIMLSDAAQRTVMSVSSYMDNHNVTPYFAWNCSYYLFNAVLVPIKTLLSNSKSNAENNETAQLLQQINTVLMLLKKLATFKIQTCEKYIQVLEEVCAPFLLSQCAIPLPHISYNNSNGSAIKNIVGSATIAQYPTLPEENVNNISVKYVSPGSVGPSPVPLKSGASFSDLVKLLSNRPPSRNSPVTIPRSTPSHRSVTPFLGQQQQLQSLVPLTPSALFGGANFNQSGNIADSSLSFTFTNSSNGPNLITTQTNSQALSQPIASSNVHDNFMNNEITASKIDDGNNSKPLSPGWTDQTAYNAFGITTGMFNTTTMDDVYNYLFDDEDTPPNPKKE

[6] = biological target: T3, GST-EIN2-CEND fusion protein (Arabidopsis); test: GST pull-down
[7] = biological target: T3, GST-EIN2-CEND fusion protein (Arabidopsis); test: GST pull-down, anti-HA western blot
[8] = biological target: T1, EIN2-CEND, yeast two-hybrid construct (EIN2:GAL4 DNA-binding domain fusion) (Arabidopsis); test: yeast two-hybrid screen and directed yeast two-hybrid

binding [1]: binds
binding [2]: binds
binding [3]: binds
binding [4]: binds
B1: ETP2 (EIN2 … PROTEIN2), yeast two-hybrid construct (protein)
chain: MKTIQEQLPNDLVEEILCRVPATSLRRLRSTCKAWNRLFKGDRILASKHFEKSAKQFRSLSLRNDYRIFPISFNLHGNSPSLELKSELIDPHSKNSAAPFEISRVIHCEGLLLCSSQLDESRVVVWNPLTGETRWIRTGDFRQKGRSFDVGYYYQKDKRSWIKSYKLLCYYRGTKYFEIYDFDSDSWRILDDIIAPRGSIGYSELSVSLKGNTYWFAKGVTEERPRTISLLKFDFYTEKSVPVLLPYQSRRLFQASSLSVVREDKLSVLLQLDQSSKTEIWVTNVIDETTKGAVSWTKVLALDLSPHLQIGNDGSFFLGEDKKVVMFCEKLIDENKVKDMVYIVGEDNVVTEVGFGVDEMDGCRAVILNYVPSLVQIERAGGNRKRGH

binding [5]: binds
binding [6]: binds
binding [7]: binds
B2: HA-tagged ETP2, in vitro translated (protein, not shown: small tags and cut ends)
chain: B1 chain

binding [1]: binds
binding [2]: binds
binding [8]: binds
B3: ETP1 (EIN2 … PROTEIN1), yeast two-hybrid construct (protein)
chain: MTIPDLCNDLVDEILCRVPARNLKRLRSTSKRWNRLFKDDRRFAREHMHKAPKEYLPLMLTSEYRICPVSINLQGDVPSVVLKRELSLPDPDYSHQFDIGRVFHCDGLLVCNHVGKNPRYGSKIVVWNPLTGQTRWIEAGYRWKEYEVRFVLGYCYQQDENNSCSKKIYKILCFYPNGQDTEIYELNYSDRWTRTIPDGDLTPGWTLIYSEQTVSMNGNLYLFASEKSKPHLGVSLLRFDFSTEKSSLCVTLPYQRPRYEILSISAVRGGENLSLLLQLDFESKTEIWVTNKIDDTTTKGAAVSWTKVLAFDLSPDLQLFSEEVNFLLDEDKKVAVCCERWLEPQEHHRYQCRREYKITDKIYILGEDNKVDEVGSGEGEATDSLEGISQVILNYAPSLVQIEQAGGGKTKRGDD

binding [5]: binds
binding [6]: binds
binding [7]: binds
B4: HA-tagged ETP1, in vitro translated (protein, not shown: small tags and cut ends)
chain: B3 chain

Reference: patent publication US20100242135A1
